Patent publication US20210379112A1, “STEM CELL THERAPY” (PLASTICELL LIMITED, priority 2018, published 2021)

Test system: UCB derived CD133+ cells
Assay: Ex vivo expansion of umbilical cord blood CD133+ cells (flow cytometry, counting beads)
Type: cell-based, human
Source text: Human UCB units were collected with written informed pre-consent and ethical approval from Oxford and Berkshire National Research Ethical Committees and studies conducted with approval of the NHSBT research committee. UCB mononuclear cells (MNC) were isolated by density gradient centrifugation on lymphocyte separation medium 1077 (PAA Laboratories, Pasching, Austria; density<1.077 g/ml). CD133+ cells were isolated from the MNC with immunomagnetic beads (Miltenyi Biotec, Germany). After isolation, the cells were cryopreserved in 10% DMSO in FCS (fetal calf serum) and stored at −150° C. in aliquots of 1×10^5 cells/vial. Cells were analysed for the purity of the isolation with flow cytometry on a BD LSR II (BD Biosciences, CA) using CD34-APC, CD133-PE and the appropriate isotype controls (all Miltenyi Biotec). […]
The next day cells were harvested from the plates counted, and seeded into 24 well Nanex plates (Compass Biomedical) or standard tissue culture treated plates at 2500 cells/well in 1 mL basal media (StemSpan ACF with 100 ng/mL SCF, 100 ng/mL FLT3LG and 20 ng/mL TPO) containing an HDAC inhibitor (for most experiments scriptaid was used at a concentration of 1 μM). […]
Cell number was measured using flow cytometry with the aid of counting beads (CountBright beads Life Technologies).

`Cc1ccc(C(=O)NCCCCCC(=O)Nc2ccccc2N)cc1` [RG2833] was tested, and the “fold expansion of total nucleated cells (TNC) compared to cells grown in basal media” value (5 days culture, vs basal media with cytokines, WR1065 added 16-20 h before harvest) was “increase” and the “fold expansion of HSC compared to cells grown in basal media” value (5 days, result in words, FIG. 7-12) was “doubled”.
